Experimental data: PMC6134011
These are yes or no findings as the source states them, for the method shown. In cells and extracts the contact can be indirect. Some entries that bind do so weakly or less than the wild type. Where a sequence is shown, tags or fusion partners need not be part of it.

Sequences of proteins named here, by UniProt entry; tags and fusion partners are left off. Residues count along the entry.
UniProt O35607, residues 27-1038: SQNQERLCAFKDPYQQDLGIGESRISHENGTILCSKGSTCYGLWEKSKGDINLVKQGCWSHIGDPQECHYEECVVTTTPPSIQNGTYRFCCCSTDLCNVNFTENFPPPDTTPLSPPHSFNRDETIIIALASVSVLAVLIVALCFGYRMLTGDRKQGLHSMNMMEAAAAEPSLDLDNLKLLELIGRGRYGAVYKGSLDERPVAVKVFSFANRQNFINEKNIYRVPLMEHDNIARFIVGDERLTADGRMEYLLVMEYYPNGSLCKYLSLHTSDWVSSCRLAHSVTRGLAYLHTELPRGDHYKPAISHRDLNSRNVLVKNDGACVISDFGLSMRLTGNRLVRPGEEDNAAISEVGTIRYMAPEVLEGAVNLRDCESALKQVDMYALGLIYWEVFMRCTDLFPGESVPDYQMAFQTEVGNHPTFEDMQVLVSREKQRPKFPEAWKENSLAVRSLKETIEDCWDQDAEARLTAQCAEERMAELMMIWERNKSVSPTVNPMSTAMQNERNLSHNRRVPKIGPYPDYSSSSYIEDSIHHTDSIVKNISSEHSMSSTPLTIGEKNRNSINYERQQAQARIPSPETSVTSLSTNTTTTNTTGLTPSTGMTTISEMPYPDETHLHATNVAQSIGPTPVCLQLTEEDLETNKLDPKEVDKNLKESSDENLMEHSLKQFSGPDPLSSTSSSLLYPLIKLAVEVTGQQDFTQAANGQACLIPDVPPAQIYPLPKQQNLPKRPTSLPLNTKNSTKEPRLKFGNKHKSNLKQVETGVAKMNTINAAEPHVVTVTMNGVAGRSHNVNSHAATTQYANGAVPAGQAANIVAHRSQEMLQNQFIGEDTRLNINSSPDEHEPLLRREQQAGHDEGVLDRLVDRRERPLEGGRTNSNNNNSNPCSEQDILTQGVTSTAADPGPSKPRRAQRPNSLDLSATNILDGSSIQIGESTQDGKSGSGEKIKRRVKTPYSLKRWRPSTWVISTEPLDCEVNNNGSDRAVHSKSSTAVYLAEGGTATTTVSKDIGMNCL
UniProt P97471: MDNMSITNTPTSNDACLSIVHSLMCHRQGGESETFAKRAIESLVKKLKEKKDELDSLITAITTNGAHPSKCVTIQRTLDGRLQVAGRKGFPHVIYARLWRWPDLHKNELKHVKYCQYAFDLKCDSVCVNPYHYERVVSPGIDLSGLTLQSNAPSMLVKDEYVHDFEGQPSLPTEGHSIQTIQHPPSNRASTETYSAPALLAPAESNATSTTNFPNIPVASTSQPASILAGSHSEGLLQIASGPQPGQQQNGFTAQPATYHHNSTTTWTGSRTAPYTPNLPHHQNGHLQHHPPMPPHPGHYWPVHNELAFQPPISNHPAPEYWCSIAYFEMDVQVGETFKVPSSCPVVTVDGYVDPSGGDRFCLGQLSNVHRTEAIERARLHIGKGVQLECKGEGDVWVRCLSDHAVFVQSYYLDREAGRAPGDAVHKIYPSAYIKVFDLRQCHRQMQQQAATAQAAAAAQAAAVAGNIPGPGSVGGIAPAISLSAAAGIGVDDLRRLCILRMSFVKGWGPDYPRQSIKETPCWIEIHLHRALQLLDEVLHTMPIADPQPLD

Target: T1, Flag-Cited1 (mouse) (UniProt P97769)
T1 sequence: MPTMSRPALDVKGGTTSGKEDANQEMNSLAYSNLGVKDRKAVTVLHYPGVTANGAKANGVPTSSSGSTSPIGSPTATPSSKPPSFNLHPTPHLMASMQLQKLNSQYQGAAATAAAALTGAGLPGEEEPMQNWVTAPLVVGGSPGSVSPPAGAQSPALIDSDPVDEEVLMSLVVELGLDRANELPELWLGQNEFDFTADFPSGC
Assay: co-IP; Whole-cell lysates of E14T ESCs expressing Flag-Cited1, lysed in Co-IP buffer (50 mM Tris-HCl pH 7.5, 150 mM NaCl, 10% glycerol, 2 mM EDTA, 0.5% NP-40, protease inhibitors); precipitated with anti-Flag M2 magnetic beads overnight; western blot of the endogenous partner; 5% of WCL as input

| Substance | binding |
| --- | --- |
| Bmpr2 (from UniProt O35607 27-1038) (receptor) | binds |
| Smad4 (from UniProt P97471 1-551) | binds |
